Measured values published in doi:10.1101/2022.07.02.498517.
Results are given in words; binding and its absence hold for the method and conditions named. In cells and extracts the contact can be indirect. These calls come from enrichment with a bait or labelling near it, and not all partners need be listed. Sequences can lack the tags named with a protein.

T1: Atp6 subunit C-terminally tagged by HA-6xHis (S. cerevisiae) (UniProt P00854)
T1 sequence: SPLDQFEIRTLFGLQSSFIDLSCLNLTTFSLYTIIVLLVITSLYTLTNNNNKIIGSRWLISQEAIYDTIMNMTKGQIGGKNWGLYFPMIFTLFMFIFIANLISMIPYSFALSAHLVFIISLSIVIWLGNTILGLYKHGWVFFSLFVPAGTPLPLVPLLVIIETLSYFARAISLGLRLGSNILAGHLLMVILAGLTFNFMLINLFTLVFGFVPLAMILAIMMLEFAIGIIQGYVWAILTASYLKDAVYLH

B1: Atp20 (subunit g) (protein, UniProt Q12233 1-115)
chain: MLSRIQNYTSGLVSKANLLSSKALYYGKVGAEISKQIYLKEGLQPPTVAQFKSVYSNLYKQSLNFALKPTEVLSCLKNIQKNELLKYGAYGIQLIGFYSVGEIIGRRKLVGYKHH
B2: Atp21 (subunit e) (protein, UniProt P81449 1-96)
chain: MSTVNVLRYSALGLGLFFGFRNDMILKCNAKKKEEQAQYEEKLKLVEEAKKEYAKLHPVVTPKDVPANASFNLEDPNIDFERVILNAVESLKEAST
B3: ATPase activity inhibitor protein Inh1 (protein, UniProt P01097 23-85)
chain: SEGSTGTPRGSGSEDSFVKRERATEDFFVRQREKEQLRHLKEQLEKQRKKIDSLENKIDSMTK
B4: Mco10 (Mitochondrial class one protein of 10 kDa) (protein, UniProt Q3E824 1-90)
chain: MGAAYKVFGKTVQPHVLAISTFIATAAVASYFTTKPKTKNEGKNSSALSQQKSGESSNSDAMGKDDDVVKSIEGFLNDLEKDTRQDTKAN
B5: Atp18 (subunit i) (protein, UniProt P81450 1-59)
chain: MLKRFPTPILKVYWPFFVAGAAVYYGMSKAADLSSNTKEFINDPRNPRFAKGGKFVEVD
B6: Atp16 (subunit δ) (protein, UniProt Q12165 23-160)
chain: AEAAAASSGLKLQFALPHETLYSGSEVTQVNLPAKSGRIGVLANHVPTVEQLLPGVVEVMEGSNSKKFFISGGFATVQPDSQLCVTAIEAFPLESFSQENIKNLLAEAKKNVSSSDAREAAEAAIQVEVLENLQSVLK
B7: Atp15 (subunit ε) (protein, UniProt P21306 1-62)
chain: MSAWRKAGISYAAYLNVAAQAIRSSLKTELQTASVLNRSQTDAFYTQYKNGTAASEPTPITK
B8: Atp19 (subunit k) (protein, UniProt P81451 1-68)
chain: MGAAYHFMGKAIPPHQLAIGTLGLLGLLVVPNPFKSAKPKTVDIKTDNKDEEKFIENYLKKHSEKQDA

Target: T1, Atp6 subunit C-terminally tagged by HA-6xHis (S. cerevisiae)
Experiment: affinity purification with mass spectrometry

Row | Molecule | binding
1 | Cyt C (S. cerevisiae) | binds
2 | B1 | binds
3 | B2 | binds
4 | B3 | binds
5 | B4 | binds
6 | B5 | binds
7 | B6 | binds
8 | B7 | binds
9 | B8 | binds
